The other results are listed elsewhere or left out.
How the values were obtained:
Experiment in all cases: log2 fold change, soluble protein after heating vs DMSO (PISA); higher = thermal stabilisation; K562 lysate, 10 uM; active = over 0.2 and 3.5 SD of the protein, either way, in both replicates (recomputed)
lapatinib = compound: CS(=O)(=O)CCNCc1ccc(-c2ccc3ncnc(Nc4ccc(OCc5cccc(F)c5)c(Cl)c4)c3c2)o1 [lapatinib]
Method in brief: (§1)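 Dounce homogenisation of K562 pellets in PBS pH 7.4 with 1 mM MgCl2 produced a crude extract, used at 1 mg/mL protein. Exposure to 10 μM compound lasted 30 min, and aliquots were then heated for 3 min across 48°C-58°C, pooled and brought to 0.5% NP-40 at 4°C. The supernatant after 21,000xg for 90 min was quantified by TMTpro 16plex LC-MS/MS with channel sums equalised. Duplicate values are given as log-two fold change in thermal stability relative to solvent controls.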

By UniProt entry, the sequences of proteins in these tests, tags left out. Where a name states a change or a piece, a line headed by the entry shows the natural chain unless it says otherwise.
UniProt P47900: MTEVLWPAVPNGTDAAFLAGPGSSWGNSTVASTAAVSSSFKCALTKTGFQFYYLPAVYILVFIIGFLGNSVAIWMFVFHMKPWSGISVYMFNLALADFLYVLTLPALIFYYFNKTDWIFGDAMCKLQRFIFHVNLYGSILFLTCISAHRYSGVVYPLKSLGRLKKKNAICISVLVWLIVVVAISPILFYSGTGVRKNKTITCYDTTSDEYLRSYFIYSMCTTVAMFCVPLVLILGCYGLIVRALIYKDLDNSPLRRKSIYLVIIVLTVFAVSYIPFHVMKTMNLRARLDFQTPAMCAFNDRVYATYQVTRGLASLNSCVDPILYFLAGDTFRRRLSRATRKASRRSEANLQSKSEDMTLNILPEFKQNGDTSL
UniProt Q6PK18: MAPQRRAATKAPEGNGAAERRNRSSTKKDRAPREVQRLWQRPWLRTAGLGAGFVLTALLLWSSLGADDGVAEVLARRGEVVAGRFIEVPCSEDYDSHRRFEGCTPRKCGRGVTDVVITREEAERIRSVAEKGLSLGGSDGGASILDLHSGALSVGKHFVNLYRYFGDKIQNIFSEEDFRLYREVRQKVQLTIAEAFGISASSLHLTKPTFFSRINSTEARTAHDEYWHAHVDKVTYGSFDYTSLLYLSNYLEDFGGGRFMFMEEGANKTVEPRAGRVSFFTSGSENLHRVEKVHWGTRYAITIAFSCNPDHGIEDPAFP
UniProt Q96E52: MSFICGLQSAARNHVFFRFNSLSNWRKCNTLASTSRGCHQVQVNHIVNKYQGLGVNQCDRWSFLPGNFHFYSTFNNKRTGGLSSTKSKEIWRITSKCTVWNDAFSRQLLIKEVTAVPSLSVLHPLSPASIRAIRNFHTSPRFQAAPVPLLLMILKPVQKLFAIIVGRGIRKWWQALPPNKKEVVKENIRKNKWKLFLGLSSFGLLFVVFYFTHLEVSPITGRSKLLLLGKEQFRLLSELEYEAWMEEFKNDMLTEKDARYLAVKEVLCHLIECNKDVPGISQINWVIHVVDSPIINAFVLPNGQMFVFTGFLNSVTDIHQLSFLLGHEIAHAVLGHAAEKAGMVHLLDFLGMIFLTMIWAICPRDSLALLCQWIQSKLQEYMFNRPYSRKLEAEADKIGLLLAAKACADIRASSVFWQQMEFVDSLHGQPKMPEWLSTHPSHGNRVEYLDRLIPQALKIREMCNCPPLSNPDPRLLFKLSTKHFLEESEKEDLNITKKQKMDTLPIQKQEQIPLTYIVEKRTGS
UniProt Q8N138: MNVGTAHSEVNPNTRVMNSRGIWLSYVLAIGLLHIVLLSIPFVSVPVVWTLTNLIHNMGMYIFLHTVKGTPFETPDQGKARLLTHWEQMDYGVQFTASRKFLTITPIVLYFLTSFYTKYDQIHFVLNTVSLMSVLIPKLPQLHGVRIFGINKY
UniProt Q86UD1: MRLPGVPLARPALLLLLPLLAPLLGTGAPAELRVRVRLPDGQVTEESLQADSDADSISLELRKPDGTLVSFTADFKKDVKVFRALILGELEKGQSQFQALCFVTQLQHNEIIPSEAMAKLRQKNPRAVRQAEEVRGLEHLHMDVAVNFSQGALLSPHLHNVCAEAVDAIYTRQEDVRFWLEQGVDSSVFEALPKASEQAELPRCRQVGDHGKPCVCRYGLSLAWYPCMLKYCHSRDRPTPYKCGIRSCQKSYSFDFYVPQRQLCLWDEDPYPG
UniProt Q13438: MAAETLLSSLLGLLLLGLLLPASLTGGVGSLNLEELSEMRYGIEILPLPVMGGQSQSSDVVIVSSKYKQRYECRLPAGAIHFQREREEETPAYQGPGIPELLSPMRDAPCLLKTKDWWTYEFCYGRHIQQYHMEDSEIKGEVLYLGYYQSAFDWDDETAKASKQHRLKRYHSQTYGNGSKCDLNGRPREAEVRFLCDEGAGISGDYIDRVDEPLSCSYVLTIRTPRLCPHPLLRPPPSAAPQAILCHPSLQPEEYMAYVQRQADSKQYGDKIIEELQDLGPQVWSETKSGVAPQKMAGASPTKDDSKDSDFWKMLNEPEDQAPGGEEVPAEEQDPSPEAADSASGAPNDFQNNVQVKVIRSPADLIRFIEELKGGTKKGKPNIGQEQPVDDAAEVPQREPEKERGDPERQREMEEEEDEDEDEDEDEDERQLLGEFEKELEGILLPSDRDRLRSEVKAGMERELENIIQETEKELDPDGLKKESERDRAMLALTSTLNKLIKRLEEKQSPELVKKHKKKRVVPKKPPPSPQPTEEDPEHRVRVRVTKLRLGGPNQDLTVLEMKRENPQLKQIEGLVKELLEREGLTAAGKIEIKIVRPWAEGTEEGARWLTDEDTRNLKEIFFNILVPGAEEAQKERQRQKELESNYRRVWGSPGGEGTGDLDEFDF
UniProt Q8N573: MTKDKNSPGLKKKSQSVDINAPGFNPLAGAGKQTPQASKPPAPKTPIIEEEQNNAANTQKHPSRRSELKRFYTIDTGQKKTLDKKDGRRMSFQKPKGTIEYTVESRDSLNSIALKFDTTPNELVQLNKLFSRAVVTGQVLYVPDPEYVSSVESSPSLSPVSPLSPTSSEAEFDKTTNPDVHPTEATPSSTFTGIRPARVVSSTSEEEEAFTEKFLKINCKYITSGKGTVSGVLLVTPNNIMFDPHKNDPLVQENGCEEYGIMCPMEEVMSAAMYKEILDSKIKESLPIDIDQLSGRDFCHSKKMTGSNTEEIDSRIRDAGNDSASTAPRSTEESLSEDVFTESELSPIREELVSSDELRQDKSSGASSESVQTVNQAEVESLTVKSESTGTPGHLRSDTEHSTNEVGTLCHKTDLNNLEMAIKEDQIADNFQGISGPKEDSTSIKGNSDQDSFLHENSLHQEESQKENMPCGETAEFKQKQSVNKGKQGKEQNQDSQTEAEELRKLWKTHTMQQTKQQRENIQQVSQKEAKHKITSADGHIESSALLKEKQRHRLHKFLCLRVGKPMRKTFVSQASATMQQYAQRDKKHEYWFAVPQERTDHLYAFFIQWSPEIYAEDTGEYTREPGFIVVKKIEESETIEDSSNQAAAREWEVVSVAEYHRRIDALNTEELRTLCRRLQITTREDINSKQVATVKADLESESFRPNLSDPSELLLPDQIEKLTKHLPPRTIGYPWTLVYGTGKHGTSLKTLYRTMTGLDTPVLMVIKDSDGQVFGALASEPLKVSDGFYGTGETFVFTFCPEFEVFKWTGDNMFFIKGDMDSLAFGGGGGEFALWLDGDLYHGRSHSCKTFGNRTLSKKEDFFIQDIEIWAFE
UniProt Q5JRK9: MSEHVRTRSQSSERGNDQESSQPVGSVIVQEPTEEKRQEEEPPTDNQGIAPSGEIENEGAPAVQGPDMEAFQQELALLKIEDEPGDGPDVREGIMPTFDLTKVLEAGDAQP
UniProt Q86VP3, whole entry, looked up: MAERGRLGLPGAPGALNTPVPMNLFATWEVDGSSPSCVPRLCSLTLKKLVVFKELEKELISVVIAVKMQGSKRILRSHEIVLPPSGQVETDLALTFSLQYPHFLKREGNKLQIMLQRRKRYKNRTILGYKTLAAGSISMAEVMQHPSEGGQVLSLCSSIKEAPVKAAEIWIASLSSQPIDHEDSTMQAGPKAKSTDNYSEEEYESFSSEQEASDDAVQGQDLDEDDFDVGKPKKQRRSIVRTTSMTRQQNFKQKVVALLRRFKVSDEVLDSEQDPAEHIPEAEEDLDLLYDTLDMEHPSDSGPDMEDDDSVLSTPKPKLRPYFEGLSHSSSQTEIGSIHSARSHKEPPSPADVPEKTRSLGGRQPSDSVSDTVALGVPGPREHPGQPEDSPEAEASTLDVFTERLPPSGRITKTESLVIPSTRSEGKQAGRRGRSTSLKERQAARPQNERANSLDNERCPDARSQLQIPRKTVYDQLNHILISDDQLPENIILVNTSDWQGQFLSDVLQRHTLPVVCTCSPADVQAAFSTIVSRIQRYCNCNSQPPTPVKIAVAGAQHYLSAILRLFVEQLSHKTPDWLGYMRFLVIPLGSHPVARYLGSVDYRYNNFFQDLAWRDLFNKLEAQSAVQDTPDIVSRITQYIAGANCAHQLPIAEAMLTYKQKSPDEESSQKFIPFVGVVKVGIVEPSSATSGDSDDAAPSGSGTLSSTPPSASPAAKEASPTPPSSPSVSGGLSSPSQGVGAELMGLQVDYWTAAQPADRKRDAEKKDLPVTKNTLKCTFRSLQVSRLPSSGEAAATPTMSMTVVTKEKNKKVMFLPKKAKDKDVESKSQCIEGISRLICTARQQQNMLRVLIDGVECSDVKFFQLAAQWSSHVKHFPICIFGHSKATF
UniProt Q6QHF9: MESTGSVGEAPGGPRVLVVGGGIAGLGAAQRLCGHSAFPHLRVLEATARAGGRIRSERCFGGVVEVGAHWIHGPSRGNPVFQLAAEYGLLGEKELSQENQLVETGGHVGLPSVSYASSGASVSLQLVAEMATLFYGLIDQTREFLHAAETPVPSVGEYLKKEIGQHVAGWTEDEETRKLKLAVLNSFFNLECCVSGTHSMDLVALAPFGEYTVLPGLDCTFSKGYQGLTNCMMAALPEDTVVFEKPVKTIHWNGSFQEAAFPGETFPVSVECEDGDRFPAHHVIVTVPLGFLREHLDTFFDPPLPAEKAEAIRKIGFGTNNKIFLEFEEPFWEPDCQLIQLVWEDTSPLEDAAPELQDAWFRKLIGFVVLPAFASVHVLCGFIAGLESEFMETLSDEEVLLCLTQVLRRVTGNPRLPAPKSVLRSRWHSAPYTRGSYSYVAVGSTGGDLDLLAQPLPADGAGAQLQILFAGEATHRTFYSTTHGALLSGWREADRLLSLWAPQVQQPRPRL
UniProt Q9H6K4: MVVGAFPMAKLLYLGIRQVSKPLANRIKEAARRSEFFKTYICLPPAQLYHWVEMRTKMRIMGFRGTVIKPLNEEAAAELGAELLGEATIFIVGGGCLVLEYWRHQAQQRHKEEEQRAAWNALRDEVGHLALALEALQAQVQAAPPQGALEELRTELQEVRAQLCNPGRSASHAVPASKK
UniProt Q02218: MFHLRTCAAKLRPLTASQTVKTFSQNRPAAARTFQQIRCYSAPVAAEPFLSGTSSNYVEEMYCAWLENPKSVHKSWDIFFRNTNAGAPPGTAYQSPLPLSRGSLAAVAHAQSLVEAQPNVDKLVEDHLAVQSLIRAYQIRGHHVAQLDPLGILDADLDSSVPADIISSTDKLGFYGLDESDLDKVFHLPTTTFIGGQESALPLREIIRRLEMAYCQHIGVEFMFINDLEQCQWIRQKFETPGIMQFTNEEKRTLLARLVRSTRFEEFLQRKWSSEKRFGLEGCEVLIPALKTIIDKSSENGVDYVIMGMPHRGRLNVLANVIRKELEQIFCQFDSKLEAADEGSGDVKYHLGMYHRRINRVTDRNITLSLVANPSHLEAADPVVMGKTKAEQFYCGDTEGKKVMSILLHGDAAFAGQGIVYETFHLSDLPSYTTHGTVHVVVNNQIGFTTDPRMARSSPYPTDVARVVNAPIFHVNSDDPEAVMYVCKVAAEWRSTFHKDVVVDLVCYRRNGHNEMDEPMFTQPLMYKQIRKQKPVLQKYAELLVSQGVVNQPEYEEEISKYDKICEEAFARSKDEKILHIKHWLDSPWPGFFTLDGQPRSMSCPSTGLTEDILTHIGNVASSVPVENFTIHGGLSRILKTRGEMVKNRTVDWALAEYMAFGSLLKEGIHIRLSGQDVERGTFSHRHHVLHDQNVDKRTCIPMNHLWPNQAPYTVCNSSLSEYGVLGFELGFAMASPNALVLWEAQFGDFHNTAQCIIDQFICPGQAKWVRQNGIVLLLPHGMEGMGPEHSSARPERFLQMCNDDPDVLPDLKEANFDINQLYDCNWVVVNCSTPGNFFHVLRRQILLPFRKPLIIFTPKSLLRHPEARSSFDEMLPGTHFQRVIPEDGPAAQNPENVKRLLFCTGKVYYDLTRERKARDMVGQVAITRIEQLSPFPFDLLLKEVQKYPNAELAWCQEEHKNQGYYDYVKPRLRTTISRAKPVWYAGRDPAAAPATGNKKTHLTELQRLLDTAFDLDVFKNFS
UniProt Q9GZY0: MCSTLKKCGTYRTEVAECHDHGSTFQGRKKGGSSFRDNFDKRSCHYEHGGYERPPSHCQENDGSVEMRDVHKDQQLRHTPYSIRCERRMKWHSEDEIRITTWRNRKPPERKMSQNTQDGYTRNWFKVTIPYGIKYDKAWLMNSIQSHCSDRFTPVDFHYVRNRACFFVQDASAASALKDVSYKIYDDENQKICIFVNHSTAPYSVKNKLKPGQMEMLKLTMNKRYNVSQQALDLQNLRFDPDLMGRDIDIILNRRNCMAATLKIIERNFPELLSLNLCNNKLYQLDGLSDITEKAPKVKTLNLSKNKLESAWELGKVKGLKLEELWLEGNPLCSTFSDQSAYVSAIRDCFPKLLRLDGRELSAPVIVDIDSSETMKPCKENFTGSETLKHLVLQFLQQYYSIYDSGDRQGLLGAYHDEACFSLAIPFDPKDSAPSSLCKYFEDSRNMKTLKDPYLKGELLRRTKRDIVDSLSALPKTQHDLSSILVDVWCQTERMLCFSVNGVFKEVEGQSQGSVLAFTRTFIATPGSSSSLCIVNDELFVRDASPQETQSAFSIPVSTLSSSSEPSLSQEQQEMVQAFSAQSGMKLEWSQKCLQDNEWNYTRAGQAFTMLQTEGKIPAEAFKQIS

pictilisib = compound: CS(=O)(=O)N1CCN(Cc2cc3nc(-c4cccc5[nH]ncc45)nc(N4CCOCC4)c3s2)CC1 [pictilisib]
Method in brief: as §1

[1] = compound: C[C@H](C1=CC=C(C=C1)C(=O)NC2=C3C=CNC3=NC=C2)N
Method in brief: as §1

duvelisib = compound: C[C@H](Nc1ncnc2nc[nH]c12)c1cc2cccc(Cl)c2c(=O)n1-c1ccccc1 [duvelisib]
Method in brief: as §1

gandotinib = compound: Cc1cc(Nc2cc(CN3CCOCC3)c3nc(C)c(Cc4ccc(Cl)cc4F)n3n2)n[nH]1 [gandotinib]
Method in brief: as §1

tozasertib = compound: Cc1cc(Nc2cc(N3CCN(C)CC3)nc(Sc3ccc(NC(=O)C4CC4)cc3)n2)n[nH]1 [tozasertib]
Method in brief: as §1

bafetinib = compound: Cc1ccc(NC(=O)c2ccc(CN3CC[C@H](N(C)C)C3)c(C(F)(F)F)c2)cc1Nc1nccc(-c2cncnc2)n1 [bafetinib]
Method in brief: as §1

[2] = compound: Cc1cccc(CC(=O)N2CCc3c2ccc(-c2cn(C)c4ncnc(N)c24)c3F)n1
Method in brief: as §1

crizotinib = compound: C[C@@H](Oc1cc(-c2cnn(C3CCNCC3)c2)cnc1N)c1c(Cl)ccc(F)c1Cl [crizotinib]
Method in brief: as §1

doramapimod = compound: Cc1ccc(-n2nc(C(C)(C)C)cc2NC(=O)Nc2ccc(OCCN3CCOCC3)c3ccccc23)cc1 [doramapimod]
Method in brief: as §1

Target	log2 fold change (lapatinib)	log2 fold change (pictilisib)	log2 fold change [1]	log2 fold change (duvelisib)	log2 fold change (gandotinib)	log2 fold change (tozasertib)	log2 fold change (bafetinib)	log2 fold change [2]	log2 fold change (crizotinib)	log2 fold change (doramapimod)
P2RY1 (UniProt P47900)	inactive: -0.091	active: -0.444	inactive: -0.02	inactive: 0.092	inactive: 0.012	inactive: 0.1	inactive: 0.021	inactive: 0.007		
OGFOD3 (UniProt Q6PK18)	inactive: -0.007	inactive: 0.018	inactive: 0.021	inactive: 0.047	inactive: 0.03	inactive: 0.014	inactive: 0.014	inactive: -0.006	inactive: 0.006	inactive: 0.109
NUP205 (UniProt Q92621)	inactive: -0.03	inactive: -0.041	inactive: -0.047	inactive: -0.008	inactive: -0.143	inactive: 0.015	inactive: -0.089	inactive: 0.031	inactive: -0.1	inactive: 0.043
OMA1 (UniProt Q96E52)	inactive: 0.002	inactive: -0.013	inactive: -0.015	inactive: 0.008	inactive: 0.061	inactive: 0.038	inactive: -0.017	inactive: 0.075	inactive: -0.034	inactive: 0.004
NUSAP1 (UniProt Q9BXS6)	inactive: -0.004	inactive: -0.018	active: -0.334	inactive: -0.022	inactive: 0.141	inactive: -0.001	inactive: 0.008	active: 0.217	inactive: 0.045	inactive: -0.011
PA2G4 (UniProt Q9UQ80)	inactive: -0.001	inactive: 0.019	inactive: 0.136	inactive: 0.008	inactive: -0.035	inactive: -0.024	inactive: 0.005	inactive: -0.03	inactive: 0.007	inactive: -0.015
PACSIN1 (UniProt Q9BY11)	inactive: 0.037	inactive: 0.029	inactive: 0.045	inactive: 0.183	inactive: -0.058	inactive: -0.013	inactive: -0.025	inactive: 0.032		
OTUD5 isoform 5 (UniProt Q96G74)	inactive: -0.007	inactive: 0.01	inactive: -0.024	inactive: -0.014	inactive: 0.048	inactive: -0.059	inactive: -0.039	inactive: 0.029	inactive: -0.008	inactive: 0.045
OGT (UniProt O15294)	inactive: -0.006	inactive: -0.038	inactive: -0.016	inactive: -0.016	inactive: -0.086	inactive: 0.016	inactive: -0.011	inactive: -0.029	inactive: -0.038	inactive: 0.009
P2RX4 isoform 2 (UniProt Q99571)	inactive: 0.038	inactive: -0.013	inactive: -0.26	inactive: -0.034	inactive: 0.037	inactive: 0.059	inactive: -0.027	inactive: 0.312	inactive: -0.187	inactive: 0.102
OXSM (UniProt Q9NWU1)	inactive: -0.04	inactive: -0.039	inactive: -0.044	inactive: 0.006	inactive: 0.048	inactive: -0.066	inactive: 0.009	inactive: -0.032	inactive: 0.013	inactive: -0.027
OSGEPL1 (UniProt Q9H4B0)	inactive: -0.025	inactive: -0.015				inactive: 0.063	inactive: -0.076		inactive: -0.079	inactive: 0.037
NUP214 isoform 4 (UniProt P35658)	inactive: 0.068	inactive: -0.007	inactive: 0.026		inactive: -0.004		inactive: -0.058	inactive: 0.034		
ORMDL3 (UniProt Q8N138)	inactive: -0.112			inactive: 0.19					inactive: -0.008	inactive: -0.19
OAF (UniProt Q86UD1)				inactive: -0.23						
OSBPL9 (UniProt E9PLH0)		inactive: 0.105					inactive: -0.123			
OAS3 (UniProt Q9Y6K5)	inactive: -0.179					inactive: 0.05			inactive: 0.19	inactive: 0.096
ORC1 (UniProt Q13415)						inactive: 0.023				
OS9 isoform 7 (UniProt Q13438)			inactive: 0.117		inactive: -0.127			inactive: 0.045		
PAN3 (UniProt Q58A45)									inactive: -0.085	inactive: 0.005
OXR1 isoform 7 (UniProt Q8N573)			inactive: 0.062		inactive: 0.014			inactive: 0.038		
OGG1 isoform 4 (UniProt O15527)				inactive: 0.229		inactive: -0.02				
P4HA1 isoform 2 (UniProt P13674)		inactive: -0.033	inactive: -0.083		inactive: 0.044	inactive: -0.048	inactive: 0.033	inactive: 0.058	inactive: 0.008	inactive: 0.011

Target	log2 fold change (lapatinib)	log2 fold change (pictilisib)	log2 fold change [1]	log2 fold change (duvelisib)	log2 fold change (gandotinib)	log2 fold change (tozasertib)	log2 fold change (bafetinib)	log2 fold change [2]	log2 fold change (crizotinib)	log2 fold change (doramapimod)
NXT2 isoform 3 (UniProt Q9NPJ8)	inactive: -0.014		inactive: -0.102		inactive: -0.082			inactive: 0.014		
ORMDL1 (UniProt Q9P0S3)		inactive: 0.072	inactive: -0.275	inactive: -0.121	inactive: -0.052		inactive: 0.251	inactive: -0.051	inactive: -0.115	inactive: 0.087
NXPE1 (UniProt F5H0Y6)	inactive: -0.131	inactive: -0.12					inactive: -0.21			
ODF2 (UniProt Q5BJF6)		inactive: 0	inactive: -0.163	inactive: -0.044	inactive: -0.244	inactive: 0.099	inactive: -0.019	inactive: 0.136	inactive: -0.099	inactive: 0.005
OCIAD1 (UniProt D6RF01)	inactive: -0.025	inactive: -0.175					inactive: 0.305			
PAPOLG (UniProt Q9BWT3)			inactive: -0.026	inactive: 0.02	inactive: -0.002	inactive: -0.027		inactive: 0.067	inactive: -0.139	inactive: 0.017
ORC3 (UniProt Q9UBD5)	inactive: 0.213		inactive: 0.129		inactive: -0.311			inactive: 0.082		
PAGE2B (UniProt Q5JRK9)	inactive: 0.216		inactive: 0.267	inactive: 0.011	inactive: -0.115	inactive: -0.017		inactive: -0.097	inactive: 0.051	inactive: 0.025
ORC6 (UniProt Q9Y5N6)		inactive: -0.056	inactive: 0.214	inactive: -0.035	inactive: -0.19	inactive: 0.012	inactive: -0.049	inactive: -0.226	inactive: 0.016	inactive: 0.057
PACS2 isoform 2 (UniProt Q86VP3)			inactive: 0.128		inactive: -0.131	inactive: -0.018		inactive: 0.158	inactive: -0.066	inactive: 0.134
P3H3 (UniProt Q8IVL6)				inactive: -0.045						
PACRGL (UniProt Q8N7B6)			inactive: -0.078	inactive: -0.246	inactive: 0.017	inactive: 0.069		inactive: -0.017	inactive: -0.062	inactive: 0.03
OCIAD1 (UniProt D6RDK6)	inactive: -0.116					inactive: 0.14				
PAOX (UniProt Q6QHF9)		inactive: -0.028					inactive: -0.018		inactive: -0.032	inactive: -0.043
OXLD1 (UniProt Q5BKU9)	inactive: 0.044								inactive: -0.051	inactive: 0.023
NXT1 (UniProt Q9UKK6)	inactive: -0.036	inactive: -0.071	inactive: -0.075		inactive: 0.16		inactive: -0.368	inactive: 0.232		
OXR1 isoform 2 (UniProt Q8N573)			inactive: 0.064		inactive: -0.123			inactive: -0.215		
OPA3 isoform 2 (UniProt Q9H6K4)				inactive: -0.048					inactive: -0.041	inactive: -0.068
OGDH isoform 2 (UniProt Q02218)			inactive: -0.1		inactive: -0.06			inactive: -0.04		
PARD3B (UniProt Q8TEW8)			inactive: -0.197	inactive: 0.024	inactive: 0.074			inactive: 0.042		
NXF2 (UniProt Q9GZY0)			inactive: 0.136	inactive: 0.018	inactive: -0.148			inactive: -0.043		
OFD1 (UniProt O75665)		inactive: -0.071	inactive: -0.019	inactive: -0.059	inactive: -0.064	inactive: -0.038	inactive: -0.109	inactive: 0.192		
PAPSS2 isoform 2 (UniProt O95340)	inactive: -0.106	inactive: 0.083	inactive: -0.373		inactive: 0.167	inactive: 0.19	inactive: -0.134	inactive: 0.242		

Some of the entries above in a different format:
Target,log2 fold change (lapatinib),log2 fold change (pictilisib),log2 fold change [1],log2 fold change (duvelisib),log2 fold change (gandotinib),log2 fold change (tozasertib),log2 fold change (bafetinib),log2 fold change [2],log2 fold change (crizotinib),log2 fold change (doramapimod)
P3H3 (UniProt Q8IVL6),,,,inactive: -0.045,,,,,,
PACRGL (UniProt Q8N7B6),,,inactive: -0.078,inactive: -0.246,inactive: 0.017,inactive: 0.069,,inactive: -0.017,inactive: -0.062,inactive: 0.03
OCIAD1 (UniProt D6RDK6),inactive: -0.116,,,,,inactive: 0.14,,,,
